Results on 36 compounds are retold here after the supplement of paper PMC8256030.

Structures can show the parent of a compound that is named as a salt. Some of the results follow. Repeats in this data set agree poorly, so a single value says little.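 HEK293T cells were given each compound shortly before transfection with a reporter in which red mCherry is followed by the SARS-CoV-2 frameshift element and then GFP in the −1 frame, so GFP appears only after frameshifting.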

One experiment concerns SARS-CoV-2 -1 PRF reporter mCherry-FSE-GFP(-1). Description: mCherry (red) intensity as percent of control; higher = higher upstream reporter expression. Conditions: 10 µM; 24 h; HEK293T.
Compound `COc1ccc(C(=O)CC(=O)c2ccc(C(C)(C)C)cc2)cc1` [avobenzone] came in with a mCherry of 106%. Take `CCCCCNC(=N)N/N=C/c1c[nH]c2ccc(OC)cc12`: the mCherry came to 104%.

For `FC(F)(Cl)C(F)(F)Cl` [cryofluorane], the mCherry was found to be 112%. Same read-out and setting: the value for `OC[C@H]1O[C@@H](O[C@@H]2[C@@H](CO)OC(O)(CO)[C@H]2O)[C@H](O)[C@@H](O)[C@H]1O` (mixture of isomers) [lactulose] was 118%.

For a further experiment the test system is unchanged. Description: percent effect, decrease of GFP/mCherry ratio (-1 PRF reporter) relative to controls; higher = stronger frameshift inhibition. To be noted: 10 µM; 24 h; HEK293T.
Regarding `CCc1oc2ccccc2c1C(=O)c1ccc(O)cc1` [benzarone], the percent effect is -5.32%. With `CCCCCCCCCCCCOCCCN` [laurixamine], the percent effect is -0.219%. Still for that read-out and setting: for `CC1(C)[C@@H](OC(=O)CCC(=O)O)CC[C@]2(C)[C@H]3C(=O)C=C4[C@@H]5C[C@@](C)(C(=O)O)CC[C@]5(C)CC[C@@]4(C)[C@]3(C)CC[C@@H]12` the value was -2.41%; for `Cn1cnc2c1c(=O)[nH]c(=O)n2C`, -2.48%. The same measure, in the same setting: the value for `Nc1nc2ccc(OC(F)(F)F)cc2s1` [riluzole] was 2.1%; that for `C[C@H]1[C@H](NC(=O)/C(=N\OC(C)(C)C(=O)O)c2csc(N)n2)C(=O)N1S(=O)(=O)O` [aztreonam] was 2.36%.

In the case of `CC(=O)Oc1cc(C(F)(F)F)ccc1C(=O)O` [triflusal], the percent effect was -0.0559%. Still for that read-out and setting: for `c1ccc(CN(CCN2CCCC2)c2ccccc2)cc1` [histapyrrodine] the value was -4.68%.

Consider `CC1=C(/C=C/C(C)=C/C=C/C(C)=C/CO)C(C)(C)CCC1` [Vitamin A (Retinol)], for which the percent effect is -8.22%. The same measure, in the same setting: the value for `Cc1oc(=O)oc1CN1CCN(c2cc3c(cc2F)c(=O)c(C(=O)O)c2n3C(C)S2)CC1` (stereo unspecified) [prulifloxacin] was -0.992%.

As to `Oc1ccccc1/C=N/Cc1ccccc1` [norletimol], the percent effect is -10.9%. As to `Clc1ccccc1CN1CCc2sccc2C1` [Ticlopidine], the percent effect is -2.09%. Same read-out and setting: for `Cc1cc(C(=O)NCCc2ccc(S(=O)(=O)NC(=O)NN3CCCCCC3)cc2)no1` [Glisoxepide] the value was -3.9%; for `CCOC(=O)CCC(=O)O[C@H]1[C@H](O[C@@H]2[C@@H](C)[C@H](O[C@H]3C[C@@](C)(OC)[C@@H](O)[C@H](C)O3)[C@@H](C)C(=O)O[C@H](CC)[C@@](C)(O)[C@H](O)[C@@H](C)C(=O)[C@H](C)C[C@@]2(C)O)O[C@H](C)C[C@@H]1N(C)C`, -7.87%. In the case of `O=c1[nH]c2ccccc2c2cc(CO)nn12` [pirquinozol], the percent effect was -2.91%. Turning to `O=C(O)C[C@H](O)C[C@H](O)/C=C/c1c(C2CC2)nc2ccccc2c1-c1ccc(F)cc1` [Pitavastatin], the percent effect was -4.24%. With `CN/C(=N\c1ccc(C2=NNC(=O)CC2C)cc1)NC#N` (stereo unspecified) [siguazodan], the percent effect was -0.505%. Still for that read-out and setting: the value for `CC(=O)Oc1ccc(C(=C2CCCCC2)c2ccc(OC(C)=O)cc2)cc1` [cyclofenil] was -3.45%; that for `CC(C)NCC(O)COc1cccc2c1N(C(=O)c1cccnc1)CCC2` (stereo unspecified) [nicainoprol] was 0.00339%; that for `CNC[C@H](O)[C@@H](O)[C@H](O)[C@H](O)CO` [meglumine] was -6.77%.

With `CCC[C@@]1(CCc2ccccc2)CC(O)=C([C@H](CC)c2cccc(NS(=O)(=O)c3ccc(C(F)(F)F)cn3)c2)C(=O)O1` [tipranavir], the percent effect worked out at 0.566%. On the same count and under the same terms, the value for `CCCC(=O)O[C@]1(C(=O)COC(C)=O)CC[C@H]2[C@@H]3C[C@H](F)C4=CC(=O)C=C[C@]4(C)[C@@]3(F)[C@@H](O)C[C@@]21C` [difluprednate] was -3.03%; that for `C[C@@H](O)CCCCn1c(=O)c2c(ncn2C)n(C)c1=O` [lisofylline] was -1.95%; that for `CCOC(=O)NNc1nncc2ccccc12` was -1.93%. The same measure, in the same setting: for `NC(=O)N1CCC(CC(=O)N2CCC([C@H]3c4ncc(Br)cc4CCc4cc(Cl)cc(Br)c43)CC2)CC1` [lonafarnib] the value was -12%; for `C[N+]1(C)[C@@H]2C[C@@H](OC(=O)C(O)(c3cccs3)c3cccs3)C[C@H]1[C@@H]1O[C@@H]12` [Tiotropium Bromide], -8.36%. On to `C=CCc1ccccc1OCC(O)CNC(C)C` (stereo unspecified) [Alprenolol·HCl], for which the percent effect was 0.672%. Same read-out and setting: for `CC(C)[C@H]1CC[C@H](C(=O)N[C@H](Cc2ccccc2)C(=O)O)CC1` [nateglinide] the value was 2.33%; for `CC[N+](C)(C)c1cccc(O)c1` [edrophonium chloride], 3.56%; for `CC(SC(=O)c1cccs1)C(=O)NCC(=O)O` (stereo unspecified) [stepronin], -6.09%.

As to `C[C@H]1COc2c(C3(N)CC3)c(F)cc3c(=O)c(C(=O)O)cn1c23` [Pazufloxacin], the percent effect worked out at 0.747%. Still for that read-out and setting: the value for `CC(=O)N[C@@H](CCC(N)=O)C(=O)O` [aceglutamide] was -2.05%.
